Results: article PMC10805397
Results are given in words; binding and its absence hold for the method and conditions named. In cells and extracts the contact can be indirect. Some results given as binding are weak or reduced against the parent protein; the word gives no strength.

Amino acid sequences for entries named in this document (tags omitted). Residues count along the entry.
UniProt P58390, residues 266-839: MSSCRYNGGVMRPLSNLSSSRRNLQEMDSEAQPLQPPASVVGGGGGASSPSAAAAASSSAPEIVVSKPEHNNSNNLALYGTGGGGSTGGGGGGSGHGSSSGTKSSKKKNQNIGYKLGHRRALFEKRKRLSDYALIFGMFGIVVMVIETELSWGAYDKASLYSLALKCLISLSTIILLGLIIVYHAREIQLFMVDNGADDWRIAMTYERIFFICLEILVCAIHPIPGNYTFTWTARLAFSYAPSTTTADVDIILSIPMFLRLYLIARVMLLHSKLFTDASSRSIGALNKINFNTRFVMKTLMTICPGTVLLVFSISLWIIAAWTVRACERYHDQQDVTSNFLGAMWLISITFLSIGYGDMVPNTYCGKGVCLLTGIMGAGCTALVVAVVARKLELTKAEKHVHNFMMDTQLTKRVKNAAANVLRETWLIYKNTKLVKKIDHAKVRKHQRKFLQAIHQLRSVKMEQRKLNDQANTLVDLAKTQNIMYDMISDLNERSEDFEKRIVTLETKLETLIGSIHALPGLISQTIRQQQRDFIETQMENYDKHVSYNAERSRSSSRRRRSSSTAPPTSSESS

Target: small-conductance calcium-activated potassium channel subtype 2 (mouse (endogenous in BLA tissue)) (UniProt P58390)
Experiment: co-IP; mouse BLA lysed in IP lysis buffer; supernatant incubated with anti-SK2 antibody overnight at 4°C, Protein A/G agarose beads 3 h, washed three times; blot probed with anti-MPP2 antibody; IgG as control

binding: binds
B1: Membrane palmitoylated protein 2 (protein, UniProt Q9WV34 1-552)
chain: MPVAATNSESAMQQVLDNLGSLPNATGAAELDLIFLRGIMESPIVRSLAKAHERLEETKLEAVRDNNLELVQEILRDLAELAEQSSTAAELARILQEPHFQSLLETHDSVASKTYETPPPSPGLDPTFSNQPVPPDAVRMVGIRKTAGEHLGVTFRVEGGELVIARILHGGMVAQQGLLHVGDIIKEVNGQPVGSDPRALQELLRSASGSVILKILPSYQEPHLPRQVFVKCHFDYDPARDSLSPCKEAGLRFNAGDLLQIVNQDDANWWQACHVEGGSAGLIPSQLLEEKRKAFVKRDLELTPTSGTLCGSLSGKKKKRMMYLTTKNAEFDRHELLIYEEVARMPPFRRKTLVLIGAQGVGRRSLKNKLILWDPDRYGTTVPYTSRRPKDSEREGQGYSFVSRGEMEADIRAGRYLEHGEYEGNLYGTRIDSIRGVVASGKVCVLDVNPQAVKVLRTAEFVPYVVFIEAPDYETLRAMNRAALESGVSTKQLTEADLRRTVEESSRIQRGYGHYFDLSLVNSNLERTFRELQTAMEKLRTEPQWVPVSWVY
